Assay results published in publication PMC3877147.
These are yes or no findings as the source states them, for the method shown. For part of these data: In cells and extracts the contact can be indirect. Some binding calls cover weakened binding; strength is not graded here.

Key:
[1] = biological target: T1, Lgl-1 (mouse (endogenous in mouse brain)) (UniProt Q80Y17); assay: SEC; mouse brain cortex lysates (PBS, 0.1% triton X-100), 250 µg protein, superose 6 on a SMART system, 40 fractions analysed by Western blot; control and aPKCλ S1-cko mice
T1 sequence: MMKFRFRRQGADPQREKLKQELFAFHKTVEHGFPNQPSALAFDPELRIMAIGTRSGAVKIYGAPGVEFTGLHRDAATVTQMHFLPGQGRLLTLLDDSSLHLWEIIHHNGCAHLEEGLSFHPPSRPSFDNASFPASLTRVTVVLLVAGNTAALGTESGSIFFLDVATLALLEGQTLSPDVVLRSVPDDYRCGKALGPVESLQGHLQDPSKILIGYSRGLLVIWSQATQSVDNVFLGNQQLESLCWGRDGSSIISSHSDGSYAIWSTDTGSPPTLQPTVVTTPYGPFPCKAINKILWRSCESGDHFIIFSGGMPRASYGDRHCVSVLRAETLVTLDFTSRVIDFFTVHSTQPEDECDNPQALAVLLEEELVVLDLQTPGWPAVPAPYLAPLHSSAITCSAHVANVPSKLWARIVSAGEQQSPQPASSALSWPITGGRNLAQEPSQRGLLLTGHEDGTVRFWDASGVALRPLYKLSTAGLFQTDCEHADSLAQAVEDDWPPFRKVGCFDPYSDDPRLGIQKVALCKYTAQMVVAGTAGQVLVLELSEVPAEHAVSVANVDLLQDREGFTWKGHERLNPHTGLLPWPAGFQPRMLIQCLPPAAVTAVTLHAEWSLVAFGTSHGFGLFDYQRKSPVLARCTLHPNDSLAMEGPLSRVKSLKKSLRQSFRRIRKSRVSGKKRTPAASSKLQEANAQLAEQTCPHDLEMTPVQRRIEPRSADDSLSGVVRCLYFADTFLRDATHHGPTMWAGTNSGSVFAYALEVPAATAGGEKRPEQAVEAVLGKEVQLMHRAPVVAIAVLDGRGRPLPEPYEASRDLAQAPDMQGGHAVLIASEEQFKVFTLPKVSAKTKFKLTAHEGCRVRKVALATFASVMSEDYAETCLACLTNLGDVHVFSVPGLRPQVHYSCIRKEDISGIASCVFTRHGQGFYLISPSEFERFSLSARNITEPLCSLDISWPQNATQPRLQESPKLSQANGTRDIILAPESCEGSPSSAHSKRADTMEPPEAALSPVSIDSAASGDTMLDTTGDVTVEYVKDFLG

[2] = biological target: T2, atypical protein kinase C lambda (aPKCλ) (mouse (endogenous in mouse brain)) (UniProt Q62074); assay: as above
T2 sequence: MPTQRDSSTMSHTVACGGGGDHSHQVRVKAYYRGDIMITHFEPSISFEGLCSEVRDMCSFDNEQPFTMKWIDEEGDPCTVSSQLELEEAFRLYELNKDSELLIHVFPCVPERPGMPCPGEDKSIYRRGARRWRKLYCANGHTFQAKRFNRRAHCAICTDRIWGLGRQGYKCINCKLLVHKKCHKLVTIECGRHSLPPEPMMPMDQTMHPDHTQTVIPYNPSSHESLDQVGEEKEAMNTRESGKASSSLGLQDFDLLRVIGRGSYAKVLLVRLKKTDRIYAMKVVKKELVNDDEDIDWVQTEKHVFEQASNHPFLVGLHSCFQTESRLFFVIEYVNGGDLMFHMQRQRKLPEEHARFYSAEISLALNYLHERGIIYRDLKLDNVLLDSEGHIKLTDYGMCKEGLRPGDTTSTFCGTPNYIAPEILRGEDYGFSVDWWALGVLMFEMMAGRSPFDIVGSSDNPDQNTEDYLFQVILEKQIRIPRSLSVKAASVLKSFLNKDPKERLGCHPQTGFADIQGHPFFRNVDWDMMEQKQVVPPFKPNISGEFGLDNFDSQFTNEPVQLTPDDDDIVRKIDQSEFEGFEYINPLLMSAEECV

[3] = biological target: T1, Lgl-1 (mouse (endogenous in mouse brain)); assay: co-IP; mouse cerebrum lysates (20 mM Hepes pH 7.2, 150 mM NaCl, 0.5% triton X-100, 10% glycerol), 2 mg protein, anti-Lgl-1 antisera (C-2) on protein A sepharose; Western blot for Lgl-1 and aPKCλ; control mice and aPKCλ S1-cko or C2-cko mice

B1: atypical protein kinase C lambda (aPKCλ) (enzyme, UniProt Q62074 1-595)
chain: MPTQRDSSTMSHTVACGGGGDHSHQVRVKAYYRGDIMITHFEPSISFEGLCSEVRDMCSFDNEQPFTMKWIDEEGDPCTVSSQLELEEAFRLYELNKDSELLIHVFPCVPERPGMPCPGEDKSIYRRGARRWRKLYCANGHTFQAKRFNRRAHCAICTDRIWGLGRQGYKCINCKLLVHKKCHKLVTIECGRHSLPPEPMMPMDQTMHPDHTQTVIPYNPSSHESLDQVGEEKEAMNTRESGKASSSLGLQDFDLLRVIGRGSYAKVLLVRLKKTDRIYAMKVVKKELVNDDEDIDWVQTEKHVFEQASNHPFLVGLHSCFQTESRLFFVIEYVNGGDLMFHMQRQRKLPEEHARFYSAEISLALNYLHERGIIYRDLKLDNVLLDSEGHIKLTDYGMCKEGLRPGDTTSTFCGTPNYIAPEILRGEDYGFSVDWWALGVLMFEMMAGRSPFDIVGSSDNPDQNTEDYLFQVILEKQIRIPRSLSVKAASVLKSFLNKDPKERLGCHPQTGFADIQGHPFFRNVDWDMMEQKQVVPPFKPNISGEFGLDNFDSQFTNEPVQLTPDDDDIVRKIDQSEFEGFEYINPLLMSAEECV
Question: For B1, which binding [1] is on record?
Answer: The binding was “binds”.

Question: What about the binding [2] of the same binder?
Answer: The binding was “no binding”.

Question: And the binding [3]?
Answer: The binding was “binds”.
